Out of some 360,000 compounds screened, about 7,500 (2.1%) were called active. The shares of active, inactive and inconclusive entries below differ from those in the screen. The call rests on the fitted dose curve; in most records, active means well fitted inhibition curve with a large enough effect; inconclusive means small, poorly fitted or top-dose-only effect, or effect the other way; inactive means flat fitted curve, though single readings scatter. A potency beside an inconclusive call is a rough fit, not a confirmed value.
Test: Nrf2 qHTS screen for inhibitors; further: nearly all actives have a fitted effect of over 60% in size
Settings: A549 ARE-Fluc reporter, luciferase luminescence, 18-24 h; activity change, negative = inhibition: at 46 µM (top of the series)
In short: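 Two sequential reads on A549 ARE_Fluc cells exposed to compound for 18-24 h: a CellTiter-Fluor fluorescence read for viability, then a luciferase luminescence read for Nrf2/ARE activity.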
On the % scale 0 is the no-effect control and ±100 the full control effect; potency means the concentration at half of the fitted maximal effect.

SMILES | Potency | activity change, negative = inhibition
CN1CCN(Cc2nc3ccccc3c(=O)n2Cc2nc(-c3ccc4ccccc4c3)cs2)CC1 | inconclusive: 29.1 µM [falling, single point] | –
O=C(Oc1ccc(-c2cnc3ccccc3n2)cc1)c1ccc(Cl)c([N+](=O)[O-])c1 | inconclusive: 6.51 µM [activator, partial curve] | –
Brc1ccc(CN2CCSCC2)cc1 | – | inactive: 9.4%
COc1cc(C(=O)NCc2ncccc2C)ccc1OC1CCN(C(C)=O)CC1 | – | inactive: 12.5%
O=C(NNc1c([N+](=O)[O-])cc(C(F)(F)F)cc1[N+](=O)[O-])c1ccco1 | inconclusive: 20.6 µM [falling, single point] | –
Cc1cc([N+](=O)[O-])ccc1NC(=O)Nc1ccccc1F | inconclusive: 3.26 µM [falling, single point] | –
Cc1ccc(S(=O)(=O)Nc2ccc3[nH]c(=O)[nH]c3c2)c(C)c1 | inconclusive: 10.3 µM [falling, partial curve] | –
C=CCN1C(=O)/C(=C/C=C2/N(CC)c3ccc(S(=O)(=O)N(C)C)cc3N2CC)SC1=S | – | inactive: -12.4%
Cc1ccc(C)c(S(=O)(=O)N2CCCCC2CCNC(=O)C(=O)NCc2ccncc2)c1 (stereo unspecified) | inconclusive: 16.4 µM [falling, single point] | –
CCN(CC)S(=O)(=O)c1cccc(NC(=O)CN2C(=O)NC3(CCOc4ccccc43)C2=O)c1 (stereo unspecified) | inconclusive: 18.4 µM [falling, partial curve, poor fit] | –
COCCNS(=O)(=O)c1ccc(F)c(OC)c1 | inconclusive: 2.31 µM [falling, partial curve, poor fit] | –
COc1cc(NC(=O)c2ccc3c(c2)OCO3)ccc1NC(=O)c1ccco1 | inconclusive: 2.59 µM [falling, partial curve, poor fit] | –
[O-]C1=N[N+](=C(c2ccccc2)c2ccccc2)C1 | inconclusive: 23.1 µM [activator, single point] | –
N#Cc1cnn2c3c(cnc12)C(=O)N1CCc2ccccc2C1C3 (stereo unspecified) | inconclusive: 0.231 µM [falling, full curve] | –
COc1ccc(OCc2ccc(-c3nc(C#N)c(NCc4cccnc4)o3)o2)cc1 | inconclusive: 20.6 µM [falling, single point] | –
O=c1c2ccccc2c(-c2ccccc2)nn1-c1cc(Cl)ccc1[N+](=O)[O-] | inconclusive: 2.06 µM [falling, full curve, poor fit] | –
COC(C(=O)N1CCC(n2nccc2NC(=O)C2CC2)CC1)c1ccccc1 (stereo unspecified) | inconclusive: 18.4 µM [activator, partial curve] | –
C/C(=N\NC(=O)COc1ccccc1-c1ccccc1)c1ccccn1 | active: 4.61 µM | –
O=C1NC[C@H](c2ccccc2)OC(=O)[C@H](Cc2ccc(F)cc2)CC/C=C/C[C@H]1CC(=O)N(CCO)Cc1ccccc1 | inconclusive: 29.1 µM [falling, partial curve, poor fit] | –
O=C1C(Cl)=C(N2CCCCC2)C(=O)C(Cl)=C1c1cnc(N2CCCCC2)s1 | – | inactive: 12%
N#Cc1ccc(Cn2ccnc2C(=O)Nc2ccccc2)cc1 | inconclusive: 20.6 µM [activator, partial curve, poor fit] | –
CCN(CC)c1ccc(/C=C(/C#N)c2nc3ccc(C)cc3[nH]2)c(OC(C)C)c1 | inconclusive: 4.11 µM [falling, partial curve, poor fit] | –

SMILES | Potency | activity change, negative = inhibition
CCCOC(=O)c1[nH]c2c(c1C)C(=O)CC(c1cc(OC)c(OC)c(OC)c1)C2 (stereo unspecified) | active: 16.4 µM | –
O=C1CC(=O)Nc2cc(S(=O)(=O)Nc3ccc(F)cc3Cl)ccc2N1 | – | inactive: 3.41%
OC(c1ccccc1)c1ccncc1 (stereo unspecified) | – | inactive: 4.46%
Cc1ccc(NC(=S)Nc2ccc(Br)cc2)cc1 | inconclusive: 3.66 µM [activator, single point] | –
Cc1ccc(OCCSc2nc3ccc(NC(=O)c4ccco4)cc3s2)cc1 | – | inactive: 5.35%
CCc1nnc(NC(=O)CSc2nc3cc4c(cc3cc2CC)OCCO4)s1 | – | inactive: -18%
Cc1cc(Nc2ccc(O)cc2)ccc1N | inconclusive: 11.6 µM [falling, partial curve, poor fit] | –
CC(=O)N1CCc2cc(S(=O)(=O)NC(Cc3ccccc3)C(=O)NCc3ccccc3Cl)ccc21 (stereo unspecified) | – | inactive: 1.95%
O=C1CC(N2CCN(C/C=C/c3ccccc3)CC2)C(=O)N1Cc1ccc(N2CCCC2=O)cc1 (stereo unspecified) | inconclusive: 20.6 µM [falling, partial curve, poor fit] | –
CCCc1ccc(OC(C)c2nc(-c3ccc(-n4cccc4)cc3)no2)cc1 (stereo unspecified) | active: 23.1 µM | –
O=C(c1noc2c1CCCC2)N1CCC(CO)(Cc2ccccc2Cl)CC1 | – | inactive: -15.2%
COc1ccc(NC(=O)c2cccc(-n3cnnn3)c2)cc1 | inconclusive: 23.1 µM [falling, single point] | –
COc1ccccc1/C=C\C(=O)NCC(=O)N/N=C(/C)c1cccc([N+](=O)[O-])c1 | inconclusive: 23.1 µM [falling, partial curve, poor fit] | –
CCCC(C)C(=O)Nc1ncc(S(=O)(=O)c2ccc([N+](=O)[O-])cc2)s1 (stereo unspecified) | inconclusive: 16.4 µM [falling, single point] | –
Cc1cccc(NS(=O)(=O)c2ccc3[nH]c(=O)cc(C(=O)O)c3c2)c1 | inconclusive: 14.6 µM [falling, partial curve, poor fit] | –
CCCc1cc(C(=O)NCc2cccs2)no1 | inconclusive: 18.4 µM [activator, single point] | –
CCOc1ccc(CN2CCCC(CNC(=O)c3ccc(F)cc3)C2)cc1CO (stereo unspecified) | – | inactive: 6.99%
COc1ccc(-c2sc3ccccc3c2C#CCO)cc1 | inconclusive: 29.1 µM [falling, single point] | –
Cc1cccc(NC(=O)C2CCN(S(=O)(=O)c3ccc4c(c3)OCCO4)CC2)n1 | inconclusive: 29.1 µM [falling, single point] | –
CCOc1cc(NC(=S)NCC(C)C)c(OCC)cc1NC(=O)c1cccs1 | inconclusive: 3.26 µM [falling, partial curve, poor fit] | –
O=C(O)c1cccc(COc2ccc(CO)cc2Cl)c1 | inconclusive: 0.0184 µM [activator, full curve] | –
CC[n+]1ccccc1/C=C/Nc1ccccc1 | inconclusive: 29.1 µM [falling, single point] | –

Four compounds drawn at random from the list so far, as already listed:
SMILES | Potency | activity change, negative = inhibition
CCCC(C)C(=O)Nc1ncc(S(=O)(=O)c2ccc([N+](=O)[O-])cc2)s1 (stereo unspecified) | inconclusive: 16.4 µM [falling, single point] | –
CC(=O)N1CCc2cc(S(=O)(=O)NC(Cc3ccccc3)C(=O)NCc3ccccc3Cl)ccc21 (stereo unspecified) | – | inactive: 1.95%
Cc1cccc(NS(=O)(=O)c2ccc3[nH]c(=O)cc(C(=O)O)c3c2)c1 | inconclusive: 14.6 µM [falling, partial curve, poor fit] | –
O=C(c1noc2c1CCCC2)N1CCC(CO)(Cc2ccccc2Cl)CC1 | – | inactive: -15.2%

Going on with the list.

SMILES | Potency | activity change, negative = inhibition
COc1cc2ccccc2cc1C(=O)N(CCN(C)C)c1nc2ccc(C)cc2s1 | inconclusive: 16.4 µM [activator, partial curve, poor fit] | –
CCOC(=O)c1cnc2c(C)c(Cl)ccc2c1NCCCN1CCOCC1 | inconclusive: 25.9 µM [falling, partial curve, poor fit] | –
O=C(COc1ccccc1)c1ccccc1 | inconclusive: 20.6 µM [activator, partial curve] | –
O=C(NC1CCCC1)c1nc2c(nnn2Cc2ccccc2Cl)c(=O)[nH]1 | inconclusive: 23.1 µM [falling, partial curve, poor fit] | –
Cc1ccc(S(=O)(=O)/N=C(\CCl)N2CCOCC2)cc1 | inconclusive: 14.6 µM [falling, partial curve, poor fit] | –
O=C(Nc1ccn(Cc2ccccc2F)n1)c1ccc(COc2ccccc2Cl)cc1 | active: 18.4 µM | –
COC(=O)Nc1ccc(S(=O)(=O)N2CCCC(C(=O)N3CCCCCC3)C2)cc1 (stereo unspecified) | inconclusive: 29.1 µM [falling, single point] | –
O=C(Nc1ccc(Br)cn1)c1cccc(-c2cc3ccccc3oc2=O)c1 | inconclusive: 2.31 µM [activator, partial curve, poor fit] | –
CCC(C)NC(=O)Nc1ccc(Br)cc1 (stereo unspecified) | inconclusive: 13 µM [activator, partial curve] | –
COc1cc2cc(C(=O)N/N=C/c3ccccc3Cl)[nH]c2cc1OC | inconclusive: 7.31 µM [falling, partial curve, poor fit] | –
CC1=CC(=C(C#N)c2nc3ccccc3s2)C=C(C)N1c1ccc(F)cc1 | inconclusive: 6.51 µM [activator, single point] | –
Cc1nn(C2CCS(=O)(=O)C2)c(Cl)c1/C=C/C(=O)OCC(=O)c1cc(C)n(-c2ccc(F)cc2)c1C (stereo unspecified) | active: 20.6 µM | –
Cc1cc(C)n(-c2ccc(C(F)(F)F)cc2[N+](=O)[O-])n1 | inconclusive: 29.1 µM [activator, single point] | –
Cc1cccc(NC(=O)CN2CCC(C(=O)c3ccc4c(c3)OCCO4)CC2)c1 | inconclusive: 9.2 µM [falling, partial curve, poor fit] | –
CCCN(CCC)CC(=O)NCC1(c2ccccc2)CCOCC1 | inconclusive: 11.6 µM [activator, partial curve] | –
C=CCn1c(SCC(=O)Nc2cc(NC(C)=O)ccc2OC)nnc1-c1ccccn1 | inconclusive: 6.51 µM [activator, single point] | –
CCOC(=O)Cn1c(CN2CCN(c3ccc(OC)cc3)CC2)nc2c1c(=O)[nH]c(=O)n2C | – | inactive: 3.22%
CCOCCn1c(=O)c2c(nc3n2CCCN3Cc2ccccc2)n(C)c1=O | inconclusive: 23.1 µM [falling, single point] | –
N#Cc1ccccc1OCC(=O)OCC(=O)N1CCN(C(=O)c2ccco2)CC1 | – | inactive: 4.17%
CCCCN(C(=O)CSc1ncn[nH]1)c1c(N)n(Cc2ccccc2)c(=O)[nH]c1=O | – | inactive: 1.29%
Cc1nc(Nc2ccccc2)sc1-c1ccccc1 | inconclusive: 4.61 µM [activator, partial curve] | –
COc1cc(/C=C2\SC(=O)N(c3cccc(Cl)c3)C2=O)cc([N+](=O)[O-])c1O | inconclusive: 18.4 µM [falling, single point] | –

— PubChem BioAssay AID504444 (National Center for Advancing Translational Sciences (NCATS), 2011)
